# From publication PMC4162605
# By UniProt entry, the sequences of proteins in these tests, tags left out. Residues count along the entry.
# UniProt P49302, residues 8-384: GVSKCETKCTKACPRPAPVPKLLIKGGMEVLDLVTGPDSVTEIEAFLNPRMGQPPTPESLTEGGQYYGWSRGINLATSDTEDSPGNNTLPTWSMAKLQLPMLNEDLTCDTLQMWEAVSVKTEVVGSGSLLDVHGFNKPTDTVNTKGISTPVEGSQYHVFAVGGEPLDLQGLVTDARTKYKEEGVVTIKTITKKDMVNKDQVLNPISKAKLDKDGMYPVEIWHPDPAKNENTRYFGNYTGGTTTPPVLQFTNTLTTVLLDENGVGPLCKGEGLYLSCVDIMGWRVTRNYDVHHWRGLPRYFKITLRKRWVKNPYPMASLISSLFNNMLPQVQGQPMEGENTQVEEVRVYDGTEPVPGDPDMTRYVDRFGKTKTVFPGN
# Results are given in words; binding and its absence hold for the method and conditions named. Some binding calls cover weakened binding; strength is not graded here.
# Molecular target: wild-type murine polyomavirus (MPV) VP1 capsomere, as used for VLP assembly (AF4) (murine polyomavirus) (UniProt P49302)
# Assay: asymmetrical flow field-flow fractionation (AF4); Assembly Buffer, over time; capsomere peak and VLP peak; capsomeres to VLP; both purified
substance,measurement,value
"wild-type murine polyomavirus (MPV) VP1 capsomere, as used for VLP assembly (AF4) (from UniProt P49302 8-384)",binding,binds
